Experimental data taken from PubChem BioAssay AID504467 (National Center for Advancing Translational Sciences (NCATS), 2011).
In all, about 330,000 compounds went through this assay and about 7,700 (2.3%) were called active. The shares of active, inactive and inconclusive entries below differ from those in the screen. The call rests on the fitted dose curve; in most records, active means well fitted inhibition curve with a large enough effect; inconclusive means small, poorly fitted or top-dose-only effect, or effect the other way; inactive means flat fitted curve, though single readings scatter. Potencies of inconclusive entries are doubtful fits and often do not repeat.

Assay: qHTS screen for small molecules that inhibit ELG1-dependent DNA repair in human embryonic kidney (HEK293T) cells expressing luciferase-tagged ELG1; further: nearly all actives have a fitted effect of over 55% in size
Details: HEK293T ELG1-luciferase reporter, luminescence, 16 h, DNA damage induced by 5-fluorouridine; series mostly up to 46.1 µM
Method in brief: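 In this reporter screen, reduction of luminescence relative to DMSO vehicle indicated activity. Compounds and 5-fluorouridine were added together to 2,000 cells per well, incubated for 16 hr at 37 °C, then developed with ONE-Glo.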
Potency means the concentration at half of the fitted maximal effect.

SMILES | Potency
Cn1c(CCCOc2ccc(Cl)cc2Cl)nnc1SCC(=O)Nc1ccc(F)c(Cl)c1 | inactive
CSCCC(=O)Nc1ccc(C(C)=O)cc1 | inconclusive: 16.4 µM [activator, partial curve]
N#C/C(C(=O)Nc1ccc(Cl)cc1)=C(/S)Nc1ccccc1 | inactive
Cc1ccc(S(=O)(=O)/N=C(/NC(=S)Nc2ccccc2)c2ccccc2)cc1 | inconclusive: 9.2 µM [activator, partial curve]
Cc1cc(=O)n2cccc(O)c2n1 | inconclusive: 29.1 µM [inhibitor, single point]
C=C(C)COc1ccc(-c2[nH]ncc2-c2ccc(OC)cc2)c(O)c1 | inconclusive: 20.6 µM [inhibitor, single point]
C/C(=N\NC(=O)c1cccnc1)c1c(O)cc(C)oc1=O | inactive
Cc1ccc2nc(-c3ccc(NS(=O)(=O)c4c(C)n(C)c(=O)n(C)c4=O)cc3)sc2c1 | inconclusive: 4.61 µM [activator, partial curve]
O=C(c1ccccc1)N1CCN(C(=O)c2nn3c(C(F)(F)F)cc(-c4ccco4)nc3c2Br)CC1 | inconclusive: 29.1 µM [inhibitor, single point]
Cc1ccc(-c2nc(N/N=C/c3ccncc3)c3ccccc3n2)cc1 | inconclusive: 0.461 µM [activator, partial curve, poor fit]
O=C(O)CC1(CC(=O)Nc2ccc3sccc3c2)CCCCC1 | inactive
CCCCCCC(C)n1[nH]c(=O)c2c(C)cc(C)nc21 (stereo not given) | inconclusive: 29.1 µM [inhibitor, single point]
COc1cc(/C=N/n2c(-c3n[nH]c4c3CCC4)n[nH]c2=S)ccc1O | inconclusive: 16.4 µM [activator, single point]
FC(F)Oc1ccc(C2=Nn3c(nnc3-c3ccccc3Cl)SC2)cc1OCC1CC1 | inconclusive: 25.9 µM [activator, single point]
Cc1ccc(C)c2[nH]c(=O)c(CN(Cc3nnnn3C3CCCCC3)CC3CCCO3)cc12 (stereo not given) | inconclusive: 14.6 µM [inhibitor, partial curve, poor fit]
COc1cc2c(cc1OC)C(c1ccccc1[N+](=O)[O-])N(C(C)=O)CC2 (stereo not given) | inactive
CCOC(=O)c1cnc(SCC(=O)c2ccc(Cl)cc2)nc1N | inconclusive: 25.9 µM [activator, single point]
O=C(NCCCN1CCOCC1)C(=O)N/N=C/c1c2ccccc2cc2ccccc12 | inconclusive: 1.64 µM [inhibitor, partial curve]
C=C(C)CN1C(=O)C(=O)N(CC(=C)C)C1=O | inconclusive: 29.1 µM [activator, single point]
COC(=O)c1ccc(C(=O)N2CCCC(Nc3ccc(C(C)C)cc3)C2)cc1 (stereo not given) | inactive
CCCC(=O)Nc1ccc2oc(-c3cncc(Br)c3)nc2c1 | inconclusive: 6.51 µM [activator, partial curve]
COc1cc(/C=C/C(=O)OCC(=O)N2CCCC2)cc(OC)c1OC | inconclusive: 16.4 µM [activator, single point]
Cc1cc(OCC(=O)NCCO)cc(C)c1Cl | inactive

SMILES | Potency
Cc1cc(=O)[nH]c(Nc2cccc(C(F)(F)F)c2)n1 | inconclusive: 2.59 µM [inhibitor, partial curve, poor fit]
CNC(=O)/C(C#N)=C/c1cccc(Oc2ccccc2)c1 | inconclusive: 29.1 µM [activator, single point]
COc1ccc(NC(=O)c2cnc3n(c2=O)CCS3)cc1OC | inconclusive: 16.4 µM [activator, partial curve, poor fit]
COC(=O)c1cc2c(ccn2-c2ccc(F)cc2)n1Cc1ccc(OC)cc1 | inactive
COc1ccc(C(=O)NC(=S)N2CCOCC2)cc1Br | inactive
Cc1ccc(C(=O)Nc2cccc(O)c2)cc1S(=O)(=O)N1CCCCCC1 | inconclusive: 8.2 µM [activator, partial curve]
COc1ccc(CNc2ccc3c(c2)nc(C)n3C)cc1 | inconclusive: 6.51 µM [activator, partial curve]
N#Cc1ccsc1NC(=O)CN1CCN(c2ccc(O)cc2)CC1 | inactive
CCCCN(CCCNc1ncnc2nc[nH]c12)c1ccccc1 | inconclusive: 25.9 µM [inhibitor, partial curve, poor fit]
Cc1cccc(C2c3[nH]c4ccccc4c3CCN2Cc2cnn(-c3ccc(F)cc3)c2)n1 (stereo not given) | inconclusive: 16.4 µM [inhibitor, partial curve]
CCOc1ccc2nc(N3CCCC(C(=O)NCC4CCCO4)C3)sc2c1 (stereo not given) | inconclusive: 2.91 µM [activator, partial curve]
Cc1cc(C)c2c(N=NN3CCCCC3)[nH]nc2n1 | inconclusive: 23.1 µM [activator, partial curve]
COc1ccc(C2c3c(ncn(CCN4CCOCC4)c3=N)Oc3ccc4ccccc4c32)cc1OC (stereo not given) | inactive
O=C(C1=C(O)C(=O)N(CC2CCCO2)C1c1cccc(Cl)c1)c1ccco1 (stereo not given) | inconclusive: 14.6 µM [activator, partial curve, poor fit]
COc1ccccc1N1CN(Cc2ccccc2)CNC1=S | inactive
O=S(=O)(c1ccccc1C(F)(F)F)N1CCC(n2cnc3ccccc32)CC1 | inconclusive: 18.4 µM [inhibitor, partial curve]
COc1ccccc1-n1ccnc(SCC(=O)NCc2ccccc2Cl)c1=O | inconclusive: 29.1 µM [activator, single point]
COc1ccc(CCN(Cc2nc3ccccc3c(=O)[nH]2)C(=O)C2CC2)cc1 | inconclusive: 20.6 µM [inhibitor, single point]
CCN(CC)c1ccc(NC(=O)CSC(=O)c2ccccc2)cc1 | inconclusive: 6.51 µM [activator, single point]
COC(=O)/C=C/c1ccsc1NC(C)=O | inactive
O=C(Nc1ccccc1Br)c1ccccc1-c1ccccc1 | inactive
COc1ccc(CC(=O)n2nc(-c3ccc(Cl)cc3)nc2NCc2ccco2)cc1 | inconclusive: 9.2 µM [activator, single point]

A draw from above in order of length of the SMILES, low to high.
SMILES | Potency
COc1ccccc1N1CN(Cc2ccccc2)CNC1=S | inactive
COc1ccccc1-n1ccnc(SCC(=O)NCc2ccccc2Cl)c1=O | inconclusive: 29.1 µM [activator, single point]
COC(=O)c1cc2c(ccn2-c2ccc(F)cc2)n1Cc1ccc(OC)cc1 | inactive
